Measured values reported in article doi:10.1101/2024.10.24.620053.
Results are given in words; binding and its absence hold for the method and conditions named. In cells and extracts the contact can be indirect. Here binding means that the protein was enriched with, or labelled near, the bait; the list need not be complete. Blank lines part the entries; values can stand above or below the molecule they belong to.

The chains behind the UniProt entries cited, without tags or fusion partners.
UniProt Q13283: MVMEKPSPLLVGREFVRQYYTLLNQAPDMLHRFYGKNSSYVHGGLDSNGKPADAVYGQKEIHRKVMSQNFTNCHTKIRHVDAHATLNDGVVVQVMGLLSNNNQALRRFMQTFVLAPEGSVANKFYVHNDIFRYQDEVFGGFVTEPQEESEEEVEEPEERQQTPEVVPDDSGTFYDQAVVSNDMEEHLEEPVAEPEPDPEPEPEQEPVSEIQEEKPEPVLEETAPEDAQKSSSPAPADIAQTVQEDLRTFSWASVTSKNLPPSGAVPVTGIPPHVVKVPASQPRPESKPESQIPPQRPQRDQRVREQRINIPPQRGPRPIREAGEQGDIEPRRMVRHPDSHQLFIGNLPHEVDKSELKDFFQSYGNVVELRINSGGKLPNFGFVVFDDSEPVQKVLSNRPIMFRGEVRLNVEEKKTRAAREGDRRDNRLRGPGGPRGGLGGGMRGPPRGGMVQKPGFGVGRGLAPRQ
UniProt Q9UN81: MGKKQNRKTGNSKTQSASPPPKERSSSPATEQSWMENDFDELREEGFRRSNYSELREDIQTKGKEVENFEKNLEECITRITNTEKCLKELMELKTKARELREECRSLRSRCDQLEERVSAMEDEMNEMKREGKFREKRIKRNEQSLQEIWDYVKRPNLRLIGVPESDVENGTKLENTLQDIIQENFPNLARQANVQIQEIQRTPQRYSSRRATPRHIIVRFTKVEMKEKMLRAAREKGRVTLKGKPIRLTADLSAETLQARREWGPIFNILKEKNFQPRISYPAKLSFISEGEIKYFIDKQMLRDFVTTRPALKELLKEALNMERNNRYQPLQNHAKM
UniProt Q9P2P1: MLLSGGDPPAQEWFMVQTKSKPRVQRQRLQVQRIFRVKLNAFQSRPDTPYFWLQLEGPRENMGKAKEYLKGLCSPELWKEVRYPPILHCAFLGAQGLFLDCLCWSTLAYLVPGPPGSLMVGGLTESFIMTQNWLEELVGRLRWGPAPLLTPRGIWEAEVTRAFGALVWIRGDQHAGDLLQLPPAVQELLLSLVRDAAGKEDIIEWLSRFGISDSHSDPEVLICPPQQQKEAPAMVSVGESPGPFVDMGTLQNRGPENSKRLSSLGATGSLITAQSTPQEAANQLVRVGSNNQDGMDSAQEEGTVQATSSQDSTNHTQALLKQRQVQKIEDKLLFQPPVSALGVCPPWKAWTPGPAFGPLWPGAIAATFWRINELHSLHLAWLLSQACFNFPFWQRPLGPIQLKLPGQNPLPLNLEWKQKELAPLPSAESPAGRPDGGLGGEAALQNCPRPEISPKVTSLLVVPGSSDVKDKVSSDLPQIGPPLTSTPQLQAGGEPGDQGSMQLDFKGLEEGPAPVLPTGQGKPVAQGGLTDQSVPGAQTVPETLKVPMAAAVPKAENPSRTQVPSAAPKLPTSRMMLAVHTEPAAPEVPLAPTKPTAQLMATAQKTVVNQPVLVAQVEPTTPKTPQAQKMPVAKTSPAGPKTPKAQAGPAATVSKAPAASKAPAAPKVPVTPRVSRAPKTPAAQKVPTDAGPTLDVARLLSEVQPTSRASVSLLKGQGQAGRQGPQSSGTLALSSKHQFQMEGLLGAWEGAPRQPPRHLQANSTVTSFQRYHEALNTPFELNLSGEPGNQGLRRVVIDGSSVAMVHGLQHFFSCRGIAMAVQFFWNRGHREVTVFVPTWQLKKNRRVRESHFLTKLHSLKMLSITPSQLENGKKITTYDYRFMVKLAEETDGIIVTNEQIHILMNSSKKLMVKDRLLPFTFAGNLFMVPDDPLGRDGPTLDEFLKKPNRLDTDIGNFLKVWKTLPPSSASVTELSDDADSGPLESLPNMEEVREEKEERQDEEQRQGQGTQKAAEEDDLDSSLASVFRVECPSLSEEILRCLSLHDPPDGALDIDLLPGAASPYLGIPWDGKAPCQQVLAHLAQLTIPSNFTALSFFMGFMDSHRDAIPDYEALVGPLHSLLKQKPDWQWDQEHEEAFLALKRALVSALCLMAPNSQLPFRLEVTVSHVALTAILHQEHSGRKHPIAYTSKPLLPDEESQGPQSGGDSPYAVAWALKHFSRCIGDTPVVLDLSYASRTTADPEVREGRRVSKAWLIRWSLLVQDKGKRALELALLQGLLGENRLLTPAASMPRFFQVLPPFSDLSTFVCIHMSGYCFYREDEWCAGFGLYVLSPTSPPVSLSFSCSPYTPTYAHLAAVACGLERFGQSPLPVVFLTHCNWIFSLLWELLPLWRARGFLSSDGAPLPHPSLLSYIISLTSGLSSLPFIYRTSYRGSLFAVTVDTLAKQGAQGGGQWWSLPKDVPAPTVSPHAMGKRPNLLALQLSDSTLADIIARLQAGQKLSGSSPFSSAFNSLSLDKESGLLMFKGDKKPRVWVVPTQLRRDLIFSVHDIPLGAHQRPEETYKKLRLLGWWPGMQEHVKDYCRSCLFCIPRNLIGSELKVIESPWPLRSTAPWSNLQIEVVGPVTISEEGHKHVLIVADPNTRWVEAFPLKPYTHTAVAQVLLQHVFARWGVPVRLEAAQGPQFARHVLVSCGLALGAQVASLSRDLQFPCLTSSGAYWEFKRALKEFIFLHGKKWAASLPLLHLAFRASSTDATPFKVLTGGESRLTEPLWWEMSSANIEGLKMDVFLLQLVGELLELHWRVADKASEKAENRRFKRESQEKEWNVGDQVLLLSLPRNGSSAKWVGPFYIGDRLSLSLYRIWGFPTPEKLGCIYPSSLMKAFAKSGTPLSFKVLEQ
UniProt Q99816: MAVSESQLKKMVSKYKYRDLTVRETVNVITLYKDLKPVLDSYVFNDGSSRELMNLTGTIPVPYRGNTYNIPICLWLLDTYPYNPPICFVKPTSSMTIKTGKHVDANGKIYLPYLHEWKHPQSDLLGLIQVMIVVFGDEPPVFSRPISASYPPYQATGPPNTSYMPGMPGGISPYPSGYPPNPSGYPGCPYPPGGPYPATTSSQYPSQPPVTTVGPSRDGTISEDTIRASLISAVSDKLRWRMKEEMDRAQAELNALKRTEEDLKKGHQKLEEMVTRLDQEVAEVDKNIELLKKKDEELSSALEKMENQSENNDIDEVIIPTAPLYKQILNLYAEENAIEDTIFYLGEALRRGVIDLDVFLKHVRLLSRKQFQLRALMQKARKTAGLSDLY

Target: G3BP1 (human (endogenous in HeLa)) (UniProt Q13283)
Assay: affinity purification with mass spectrometry

Molecule: L1RE1 (from UniProt Q9UN81 1-338)
binding: binds

Molecule: NYNRIN (from UniProt Q9P2P1 1-1898)
binding: binds

B1: ATXN10 (protein, UniProt Q9UBB4 1-475)
chain: MAAPRPPPARLSGVMVPAPIQDLEALRALTALFKEQRNRETAPRTIFQRVLDILKKSSHAVELACRDPSQVENLASSLQLITECFRCLRNACIECSVNQNSIRNLDTIGVAVDLILLFRELRVEQESLLTAFRCGLQFLGNIASRNEDSQSIVWVHAFPELFLSCLNHPDKKIVAYSSMILFTSLNHERMKELEENLNIAIDVIDAYQKHPESEWPFLIITDLFLKSPELVQAMFPKLNNQERVTLLDLMIAKITSDEPLTKDDIPVFLRHAELIASTFVDQCKTVLKLASEEPPDDEEALATIRLLDVLCEMTVNTELLGYLQVFPGLLERVIDLLRVIHVAGKETTNIFSNCGCVRAEGDISNVANGFKSHLIRLIGNLCYKNKDNQDKVNELDGIPLILDNCNISDSNPFLTQWVIYAIRNLTEDNSQNQDLIAKMEEQGLADASLLKKVGFEVEKKGEKLILKSTRDTPKP
binding: binds

B2: KHDRBS3 (protein, UniProt O75525 1-346)
chain: MEEKYLPELMAEKDSLDPSFTHALRLVNQEIEKFQKGEGKDEEKYIDVVINKNMKLGQKVLIPVKQFPKFNFVGKLLGPRGNSLKRLQEETLTKMSILGKGSMRDKAKEEELRKSGEAKYFHLNDDLHVLIEVFAPPAEAYARMGHALEEIKKFLIPDYNDEIRQAQLQELTYLNGGSENADVPVVRGKPTLRTRGVPAPAITRGRGGVTARPVGVVVPRGTPTPRGVLSTRGPVSRGRGLLTPRARGVPPTGYRPPPPPPTQETYGEYDYDDGYGTAYDEQSYDSYDNSYSTPAQSGADYYDYGHGLSEETYDSYGQEEWTNSRHKAPSARTAKGVYRDQPYGRY
binding: binds

B3: MEX3C (protein, UniProt Q5U5Q3 1-659)
chain: MPSGSSAALALAAAPAPLPQPPPPPPPPPPPLPPPSGGPELEGDGLLLRERLAALGLDDPSPAEPGAPALRAPAAAAQGQARRAAELSPEERAPPGRPGAPEAAELELEEDEEEGEEAELDGDLLEEEELEEAEEEDRSSLLLLSPPAATASQTQQIPGGSLGSVLLPAARFDAREAAAAAAAAGVLYGGDDAQGMMAAMLSHAYGPGGCGAAAAALNGEQAALLRRKSVNTTECVPVPSSEHVAEIVGRQGCKIKALRAKTNTYIKTPVRGEEPIFVVTGRKEDVAMAKREILSAAEHFSMIRASRNKNGPALGGLSCSPNLPGQTTVQVRVPYRVVGLVVGPKGATIKRIQQQTHTYIVTPSRDKEPVFEVTGMPENVDRAREEIEMHIAMRTGNYIELNEENDFHYNGTDVSFEGGTLGSAWLSSNPVPPSRARMISNYRNDSSSSLGSGSTDSYFGSNRLADFSPTSPFSTGNFWFGDTLPSVGSEDLAVDSPAFDSLPTSAQTIWTPFEPVNPLSGFGSDPSGNMKTQRRGSQPSTPRLSPTFPESIEHPLARRVRSDPPSTGNHVGLPIYIPAFSNGTNSYSSSNGGSTSSSPPESRRKHDCVICFENEVIAALVPCGHNLFCMECANKICEKRTPSCPVCQTAVTQAIQIHS
binding: binds

Other lines, results leading:

binding: binds
Molecule: TSG101 (from UniProt Q99816 1-390)

binding: binds
B4: OAS3 (protein, UniProt Q9Y6K5 1-1087)
chain: MDLYSTPAAALDRFVARRLQPRKEFVEKARRALGALAAALRERGGRLGAAAPRVLKTVKGGSSGRGTALKGGCDSELVIFLDCFKSYVDQRARRAEILSEMRASLESWWQNPVPGLRLTFPEQSVPGALQFRLTSVDLEDWMDVSLVPAFNVLGQAGSGVKPKPQVYSTLLNSGCQGGEHAACFTELRRNFVNIRPAKLKNLILLVKHWYHQVCLQGLWKETLPPVYALELLTIFAWEQGCKKDAFSLAEGLRTVLGLIQQHQHLCVFWTVNYGFEDPAVGQFLQRQLKRPRPVILDPADPTWDLGNGAAWHWDLLAQEAASCYDHPCFLRGMGDPVQSWKGPGLPRAGCSGLGHPIQLDPNQKTPENSKSLNAVYPRAGSKPPSCPAPGPTGAASIVPSVPGMALDLSQIPTKELDRFIQDHLKPSPQFQEQVKKAIDIILRCLHENCVHKASRVSKGGSFGRGTDLRDGCDVELIIFLNCFTDYKDQGPRRAEILDEMRAQLESWWQDQVPSLSLQFPEQNVPEALQFQLVSTALKSWTDVSLLPAFDAVGQLSSGTKPNPQVYSRLLTSGCQEGEHKACFAELRRNFMNIRPVKLKNLILLVKHWYRQVAAQNKGKGPAPASLPPAYALELLTIFAWEQGCRQDCFNMAQGFRTVLGLVQQHQQLCVYWTVNYSTEDPAMRMHLLGQLRKPRPLVLDPADPTWNVGHGSWELLAQEAAALGMQACFLSRDGTSVQPWDVMPALLYQTPAGDLDKFISEFLQPNRQFLAQVNKAVDTICSFLKENCFRNSPIKVIKVVKGGSSAKGTALRGRSDADLVVFLSCFSQFTEQGNKRAEIISEIRAQLEACQQERQFEVKFEVSKWENPRVLSFSLTSQTMLDQSVDFDVLPAFDALGQLVSGSRPSSQVYVDLIHSYSNAGEYSTCFTELQRDFIISRPTKLKSLIRLVKHWYQQCTKISKGRGSLPPQHGLELLTVYAWEQGGKDSQFNMAEGFRTVLELVTQYRQLCIYWTINYNAKDKTVGDFLKQQLQKPRPIILDPADPTGNLGHNARWDLLAKEAAACTSALCCMGRNGIPIQPWPVKAAV

binding: binds
B5: TCAF1 (protein, UniProt Q9Y4C2 1-921)
chain: MATPSAAFEALMNGVTSWDVPEDAVPCELLLIGEASFPVMVNDMGQVLIAASSYGRGRLVVVSHEDYLVEAQLTPFLLNAVGWLCSSPGAPIGVHPSLAPLAKILEGSGVDAKVEPEVKDSLGVYCIDAYNETMTEKLVKFMKCGGGLLIGGQAWDWANQGEDERVLFTFPGNLVTSVAGIYFTDNKGDTSFFKVSKKMPKIPVLVSCEDDLSDDREELLHGISELDISNSDCFPSQLLVHGALAFPLGLDSYHGCVIAAARYGRGRVVVTGHKVLFTVGKLGPFLLNAVRWLDGGRRGKVVVQTELRTLSGLLAVGGIDTSIEPNLTSDASVYCFEPVSEVGVKELQEFVAEGGGLFVGAQAWWWAFKNPGVSPLARFPGNLLLNPFGISITSQSLNPGPFRTPKAGIRTYHFRSTLAEFQVIMGRKRGNVEKGWLAKLGPDGAAFLQIPAEEIPAYMSVHRLLRKLLSRYRLPVATRENPVINDCCRGAMLSLATGLAHSGSDLSLLVPEIEDMYSSPYLRPSESPITVEVNCTNPGTRYCWMSTGLYIPGRQIIEVSLPEAAASADLKIQIGCHTDDLTRASKLFRGPLVINRCCLDKPTKSITCLWGGLLYIIVPQNSKLGSVPVTVKGAVHAPYYKLGETTLEEWKRRIQENPGPWGELATDNIILTVPTANLRTLENPEPLLRLWDEVMQAVARLGAEPFPLRLPQRIVADVQISVGWMHAGYPIMCHLESVQELINEKLIRTKGLWGPVHELGRNQQRQEWEFPPHTTEATCNLWCVYVHETVLGIPRSRANIALWPPVREKRVRIYLSKGPNVKNWNAWTALETYLQLQEAFGWEPFIRLFTEYRNQTNLPTENVDKMNLWVKMFSHQVQKNLAPFFEAWAWPIQKEVATSLAYLPEWKENIMKLYLLTQMPH
